From patent US20190060473A1 (priority 2016, published 2019) come the findings set out here.

This series in a line: general procedure: solution-phase peptide synthesis; HATU/DIPEA; EDC/DIPEA. The following applies: conjugation step.

Take “(2S)-2-((R)-2-(2-((2-(4-(2-(5-(3-(2,4-dihydroxy-5-isopropylphenyl)-5-hydroxy-4H-1,2,4-triazol-4-yl)-1H-indol-1-yl)ethyl)piperidin-1-yl)-2-oxoethyl)disulfanyl)-N-methylacetamido)-3-methylbutanamido)-N-((3R,5S)-1-((R)-2-((1S,2R)-3-(((1R,2S)-1-hydroxy-1-phenylpropan-2-yl)amino)-1-methoxy-2-methyl-3-oxopropyl)pyrrolidin-1-yl)-3-methoxy-5-methyl-1-oxoheptan-4-yl)-N,3-dimethylbutanamide”: the conjugation yield came to 51%.
